Data on one molecule can be found in PMC11092868.

Chains of the proteins cited; added tags and fusions are not shown. Residues count along the entry.
UniProt Q16595, residues 42-210: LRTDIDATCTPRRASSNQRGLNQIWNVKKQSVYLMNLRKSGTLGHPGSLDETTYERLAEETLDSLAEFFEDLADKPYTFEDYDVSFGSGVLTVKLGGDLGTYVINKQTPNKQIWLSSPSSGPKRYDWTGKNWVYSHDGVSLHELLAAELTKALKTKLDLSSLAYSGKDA

No constants are given. Whether binding was seen depends on the method and setting. In cells and extracts the contact can be indirect. These calls come from enrichment with a bait or labelling near it, and not all partners need be listed.

The target in the assay is frataxin FXN^42-210, endogenous in human lymphoblasts (human (endogenous in lymphoblasts)) (UniProt Q16595). As to the kind of experiment: affinity purification with mass spectrometry; rabbit anti-FXN antibody on Protein A magnetic beads; pooled high molecular weight Superdex 75 fractions of human lymphoblast lysates; bound fraction analysed by LC-MS/MS.

B1: Peroxiredoxin 3, endogenous human (protein, UniProt P30048 62-256)
chain: APAVTQHAPYFKGTAVVNGEFKDLSLDDFKGKYLVLFFYPLDFTFVCPTEIVAFSDKANEFHDVNCEVVAVSVDSHFSHLAWINTPRKNGGLGHMNIALLSDLTKQISRDYGVLLEGSGLALRGLFIIDPNGVIKHLSVNDLPVGRSVEETLRLVKAFQYVETHGEVCPANWTPDSPTIKPSPAASKEYFQKVNQ
Take B1: the binding entry is “binds”.
